This note sets out measurements from the supplement of paper PMC7666118.

The chains behind the UniProt entries cited, without tags or fusion partners. Where a name states a change or a piece, a line headed by the entry shows the natural chain unless it says otherwise.
UniProt Q8N1G0: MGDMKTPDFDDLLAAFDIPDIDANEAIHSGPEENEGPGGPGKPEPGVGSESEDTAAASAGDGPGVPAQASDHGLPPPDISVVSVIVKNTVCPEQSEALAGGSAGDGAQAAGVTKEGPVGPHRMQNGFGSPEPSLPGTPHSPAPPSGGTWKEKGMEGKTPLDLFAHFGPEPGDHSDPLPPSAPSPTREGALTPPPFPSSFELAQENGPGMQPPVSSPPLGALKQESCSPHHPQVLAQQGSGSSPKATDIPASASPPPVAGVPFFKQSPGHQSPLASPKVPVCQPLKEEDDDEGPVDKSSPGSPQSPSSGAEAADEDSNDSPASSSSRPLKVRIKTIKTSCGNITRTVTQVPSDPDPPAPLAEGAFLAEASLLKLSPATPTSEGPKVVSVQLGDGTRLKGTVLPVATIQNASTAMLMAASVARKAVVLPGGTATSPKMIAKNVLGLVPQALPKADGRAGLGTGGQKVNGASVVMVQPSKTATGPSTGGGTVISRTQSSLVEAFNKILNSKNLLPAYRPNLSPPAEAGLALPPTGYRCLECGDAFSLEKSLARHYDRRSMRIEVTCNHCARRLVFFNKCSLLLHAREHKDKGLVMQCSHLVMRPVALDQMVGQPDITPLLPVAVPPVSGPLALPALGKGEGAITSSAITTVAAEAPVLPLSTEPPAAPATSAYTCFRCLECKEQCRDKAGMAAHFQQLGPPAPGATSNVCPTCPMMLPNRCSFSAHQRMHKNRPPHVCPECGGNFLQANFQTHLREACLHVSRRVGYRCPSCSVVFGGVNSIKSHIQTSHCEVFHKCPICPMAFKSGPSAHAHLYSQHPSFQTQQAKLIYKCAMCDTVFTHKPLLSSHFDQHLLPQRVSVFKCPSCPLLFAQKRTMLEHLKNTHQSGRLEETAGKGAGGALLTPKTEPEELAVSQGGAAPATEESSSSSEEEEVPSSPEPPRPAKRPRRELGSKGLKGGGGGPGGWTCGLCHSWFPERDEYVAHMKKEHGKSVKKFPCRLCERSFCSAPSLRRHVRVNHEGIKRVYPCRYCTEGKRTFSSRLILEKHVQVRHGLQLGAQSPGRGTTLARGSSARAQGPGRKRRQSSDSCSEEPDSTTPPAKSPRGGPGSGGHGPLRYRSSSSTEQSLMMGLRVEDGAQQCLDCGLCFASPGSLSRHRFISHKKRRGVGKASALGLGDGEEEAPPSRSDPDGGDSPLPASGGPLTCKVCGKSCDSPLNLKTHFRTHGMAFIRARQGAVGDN
UniProt Q5VYS8: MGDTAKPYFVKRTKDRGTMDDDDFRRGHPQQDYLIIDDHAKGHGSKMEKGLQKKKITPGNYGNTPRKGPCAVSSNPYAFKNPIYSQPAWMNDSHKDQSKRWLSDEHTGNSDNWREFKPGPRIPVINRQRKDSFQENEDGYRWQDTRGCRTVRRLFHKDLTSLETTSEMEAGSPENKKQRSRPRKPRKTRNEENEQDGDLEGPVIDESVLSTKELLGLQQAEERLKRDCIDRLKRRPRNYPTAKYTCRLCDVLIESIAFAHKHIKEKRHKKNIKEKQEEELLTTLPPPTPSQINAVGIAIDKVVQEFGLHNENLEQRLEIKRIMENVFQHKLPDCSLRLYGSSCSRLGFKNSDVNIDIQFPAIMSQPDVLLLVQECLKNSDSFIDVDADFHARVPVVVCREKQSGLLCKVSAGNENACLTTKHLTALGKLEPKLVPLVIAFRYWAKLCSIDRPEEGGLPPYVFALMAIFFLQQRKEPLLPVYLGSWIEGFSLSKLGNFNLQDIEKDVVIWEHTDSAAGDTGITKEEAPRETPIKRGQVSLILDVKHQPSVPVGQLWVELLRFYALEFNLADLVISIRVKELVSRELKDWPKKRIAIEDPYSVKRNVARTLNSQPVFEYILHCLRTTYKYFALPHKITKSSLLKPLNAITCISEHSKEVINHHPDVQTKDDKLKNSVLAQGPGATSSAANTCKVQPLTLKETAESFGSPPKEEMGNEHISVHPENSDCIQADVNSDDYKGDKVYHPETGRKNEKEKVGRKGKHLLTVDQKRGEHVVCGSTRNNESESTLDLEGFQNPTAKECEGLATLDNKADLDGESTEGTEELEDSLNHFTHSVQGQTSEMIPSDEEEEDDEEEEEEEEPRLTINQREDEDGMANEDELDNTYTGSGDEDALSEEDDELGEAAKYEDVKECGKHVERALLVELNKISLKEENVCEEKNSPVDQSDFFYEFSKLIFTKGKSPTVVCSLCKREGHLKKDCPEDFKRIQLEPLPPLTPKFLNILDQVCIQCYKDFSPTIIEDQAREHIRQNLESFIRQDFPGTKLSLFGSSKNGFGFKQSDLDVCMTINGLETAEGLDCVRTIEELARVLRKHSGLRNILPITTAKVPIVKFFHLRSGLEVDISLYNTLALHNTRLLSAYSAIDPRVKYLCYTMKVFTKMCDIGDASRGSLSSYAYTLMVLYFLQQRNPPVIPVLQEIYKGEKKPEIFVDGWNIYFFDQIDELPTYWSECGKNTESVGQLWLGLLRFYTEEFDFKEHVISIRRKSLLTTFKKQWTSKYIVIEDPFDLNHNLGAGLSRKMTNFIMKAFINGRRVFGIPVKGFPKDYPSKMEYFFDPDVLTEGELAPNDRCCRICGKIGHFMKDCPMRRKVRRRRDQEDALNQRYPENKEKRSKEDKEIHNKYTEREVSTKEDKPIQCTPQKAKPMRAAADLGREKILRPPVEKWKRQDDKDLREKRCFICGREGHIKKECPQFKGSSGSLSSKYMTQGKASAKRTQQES
UniProt O15014: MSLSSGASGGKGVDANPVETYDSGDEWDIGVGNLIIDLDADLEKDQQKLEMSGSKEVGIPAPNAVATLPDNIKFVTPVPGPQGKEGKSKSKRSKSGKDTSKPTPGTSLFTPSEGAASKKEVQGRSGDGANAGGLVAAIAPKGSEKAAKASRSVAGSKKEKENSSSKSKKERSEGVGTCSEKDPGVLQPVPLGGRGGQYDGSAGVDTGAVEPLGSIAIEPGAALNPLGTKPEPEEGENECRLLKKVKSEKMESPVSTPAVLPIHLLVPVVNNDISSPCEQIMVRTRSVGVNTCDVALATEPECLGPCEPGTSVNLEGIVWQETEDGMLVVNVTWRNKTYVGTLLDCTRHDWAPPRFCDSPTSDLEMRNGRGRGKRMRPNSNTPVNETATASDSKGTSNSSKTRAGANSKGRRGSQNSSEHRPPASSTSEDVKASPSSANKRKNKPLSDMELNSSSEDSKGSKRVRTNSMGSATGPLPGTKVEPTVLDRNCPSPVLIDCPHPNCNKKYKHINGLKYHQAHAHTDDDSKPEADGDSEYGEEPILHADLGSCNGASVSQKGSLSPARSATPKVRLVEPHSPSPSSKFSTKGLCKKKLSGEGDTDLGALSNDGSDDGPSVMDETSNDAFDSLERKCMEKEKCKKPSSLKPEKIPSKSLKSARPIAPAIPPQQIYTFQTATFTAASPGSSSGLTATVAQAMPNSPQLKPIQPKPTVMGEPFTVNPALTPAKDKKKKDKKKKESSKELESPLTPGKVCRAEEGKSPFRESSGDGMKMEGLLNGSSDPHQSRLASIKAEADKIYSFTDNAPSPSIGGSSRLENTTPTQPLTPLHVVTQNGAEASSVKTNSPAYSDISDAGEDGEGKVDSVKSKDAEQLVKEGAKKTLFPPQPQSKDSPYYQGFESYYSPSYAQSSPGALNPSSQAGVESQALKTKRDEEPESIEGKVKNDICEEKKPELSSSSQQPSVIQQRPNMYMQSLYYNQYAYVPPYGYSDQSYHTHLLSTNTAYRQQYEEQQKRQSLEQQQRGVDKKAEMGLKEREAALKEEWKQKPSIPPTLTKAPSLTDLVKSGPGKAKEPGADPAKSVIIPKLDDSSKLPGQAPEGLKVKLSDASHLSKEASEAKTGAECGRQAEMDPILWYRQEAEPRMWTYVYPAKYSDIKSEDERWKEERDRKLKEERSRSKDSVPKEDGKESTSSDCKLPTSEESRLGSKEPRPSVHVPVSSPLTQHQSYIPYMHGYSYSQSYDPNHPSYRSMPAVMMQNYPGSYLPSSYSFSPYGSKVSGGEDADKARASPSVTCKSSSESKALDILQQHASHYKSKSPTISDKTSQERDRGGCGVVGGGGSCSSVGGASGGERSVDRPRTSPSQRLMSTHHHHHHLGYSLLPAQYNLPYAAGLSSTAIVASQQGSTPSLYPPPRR
UniProt Q9GZM5: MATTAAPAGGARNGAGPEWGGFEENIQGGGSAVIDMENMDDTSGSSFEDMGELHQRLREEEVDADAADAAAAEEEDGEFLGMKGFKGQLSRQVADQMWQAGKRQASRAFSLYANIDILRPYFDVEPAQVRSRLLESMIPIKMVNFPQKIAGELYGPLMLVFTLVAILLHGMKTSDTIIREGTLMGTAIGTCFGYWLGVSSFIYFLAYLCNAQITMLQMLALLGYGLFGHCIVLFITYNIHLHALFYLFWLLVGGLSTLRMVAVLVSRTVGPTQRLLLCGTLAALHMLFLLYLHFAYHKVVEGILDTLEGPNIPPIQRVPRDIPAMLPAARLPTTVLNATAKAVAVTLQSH
UniProt Q9H773: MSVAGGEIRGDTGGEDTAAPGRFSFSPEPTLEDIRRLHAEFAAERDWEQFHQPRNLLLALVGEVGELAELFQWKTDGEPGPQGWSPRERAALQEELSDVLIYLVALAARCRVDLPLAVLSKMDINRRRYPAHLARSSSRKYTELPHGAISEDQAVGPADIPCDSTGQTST
UniProt Q9UQR1: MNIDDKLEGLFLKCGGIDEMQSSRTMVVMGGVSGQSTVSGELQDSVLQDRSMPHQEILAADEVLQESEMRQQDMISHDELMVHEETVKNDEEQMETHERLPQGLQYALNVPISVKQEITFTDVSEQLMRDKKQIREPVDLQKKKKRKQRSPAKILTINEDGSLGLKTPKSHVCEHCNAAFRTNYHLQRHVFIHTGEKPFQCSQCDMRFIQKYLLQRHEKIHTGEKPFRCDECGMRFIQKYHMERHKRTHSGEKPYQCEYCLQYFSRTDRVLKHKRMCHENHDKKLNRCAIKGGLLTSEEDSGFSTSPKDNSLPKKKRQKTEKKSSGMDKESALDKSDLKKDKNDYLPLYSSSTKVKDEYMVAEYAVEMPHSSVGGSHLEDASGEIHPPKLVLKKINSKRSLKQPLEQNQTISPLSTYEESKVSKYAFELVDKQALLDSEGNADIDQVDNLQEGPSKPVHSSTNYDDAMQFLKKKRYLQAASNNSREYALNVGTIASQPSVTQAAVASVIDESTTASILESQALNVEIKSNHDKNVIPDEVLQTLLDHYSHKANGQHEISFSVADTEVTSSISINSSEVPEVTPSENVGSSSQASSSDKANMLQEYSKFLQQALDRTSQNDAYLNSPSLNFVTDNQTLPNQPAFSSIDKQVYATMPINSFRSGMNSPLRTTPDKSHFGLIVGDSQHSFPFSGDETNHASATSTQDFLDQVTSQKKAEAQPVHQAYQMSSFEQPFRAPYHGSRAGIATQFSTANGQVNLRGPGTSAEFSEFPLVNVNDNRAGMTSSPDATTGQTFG
UniProt Q9Y548: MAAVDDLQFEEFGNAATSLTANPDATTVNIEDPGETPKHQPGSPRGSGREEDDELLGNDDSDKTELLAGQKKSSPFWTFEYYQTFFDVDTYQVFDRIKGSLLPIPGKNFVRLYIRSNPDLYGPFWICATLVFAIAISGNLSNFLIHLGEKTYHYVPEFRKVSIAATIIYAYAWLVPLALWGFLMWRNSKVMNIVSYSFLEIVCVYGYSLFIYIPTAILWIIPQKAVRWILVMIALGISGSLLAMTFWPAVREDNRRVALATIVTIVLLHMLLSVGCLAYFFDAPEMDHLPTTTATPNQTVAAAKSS
UniProt Q9NRM2: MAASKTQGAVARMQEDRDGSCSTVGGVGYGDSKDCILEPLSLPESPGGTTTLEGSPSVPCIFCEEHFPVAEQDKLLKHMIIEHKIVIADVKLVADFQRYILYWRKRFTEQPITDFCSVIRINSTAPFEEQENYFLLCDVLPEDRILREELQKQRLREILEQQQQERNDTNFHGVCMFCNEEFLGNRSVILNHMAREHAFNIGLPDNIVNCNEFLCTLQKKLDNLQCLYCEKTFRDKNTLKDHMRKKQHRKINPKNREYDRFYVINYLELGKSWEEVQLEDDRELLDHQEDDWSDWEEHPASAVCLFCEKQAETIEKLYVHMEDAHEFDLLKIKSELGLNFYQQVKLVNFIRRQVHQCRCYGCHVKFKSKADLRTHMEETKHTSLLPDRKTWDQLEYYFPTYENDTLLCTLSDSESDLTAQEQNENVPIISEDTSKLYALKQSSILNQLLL

This is one part of the list.

Compound in the test: COc1ccc(Cn2ccc3cc(C)c(C(=O)NO)cc32)cc1
The experiment in a line: dose-dependent thermal stabilisation call (2D-TPP, DLPTP, 10% FDR) (binary (1 = stabilised)); higher = stabilised by the compound. Conditions: system: HL-60 intact cells; concentration range 0.04-10 µM. The method, then: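 2D thermal proteome profiling in intact HL-60 cells treated with BRD-3811 (0, 0.04, 0.29, 2, 10 uM) for 90 min at 37 C, then heated 3 min at one of 12 temperatures (42-63.9 C). Soluble protein was quantified by TMT10 MS. The value is the DLPTP call of the paper: dose-dependent thermal stabilisation over all temperatures at 10% FDR (F-test of a dose-response against a flat model); one experiment, one call per tested protein.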
In the case of ZNF687 (UniProt Q8N1G0), the “dose-dependent thermal stabilisation call” value is inactive: 0. As for ZCCHC6 (UniProt Q5VYS8), the “dose-dependent thermal stabilisation call” value is inactive: 0.

Turning to ZNF609 (UniProt O15014), the “dose-dependent thermal stabilisation call” value is inactive: 0. Consider YTHDC1 (UniProt Q96MU7), for which the “dose-dependent thermal stabilisation call” value is inactive: 0. Regarding YIPF3 (UniProt Q9GZM5), the “dose-dependent thermal stabilisation call” value was inactive: 0. Regarding XTP3TPA (UniProt Q9H773), the “dose-dependent thermal stabilisation call” value was inactive: 0. For the target ZNF148 (UniProt Q9UQR1), the “dose-dependent thermal stabilisation call” value was inactive: 0. Then YIPF1 (UniProt Q9Y548), with inactive: 0.

With ZNF277 (UniProt Q9NRM2), the “dose-dependent thermal stabilisation call” value is inactive: 0.
